Laboratory results published in the supplement of paper PMC10849652.
This is one part of the list. Residues, ends and D or L forms follow the SMILES beside them. *: point of attachment. Cbz = O=C(OCc1ccccc1)*

Sequences of proteins named here, by UniProt entry; tags and fusion partners are left off. A change or cut given only in a name is not applied to a line headed by its entry.
UniProt Q9UIW2: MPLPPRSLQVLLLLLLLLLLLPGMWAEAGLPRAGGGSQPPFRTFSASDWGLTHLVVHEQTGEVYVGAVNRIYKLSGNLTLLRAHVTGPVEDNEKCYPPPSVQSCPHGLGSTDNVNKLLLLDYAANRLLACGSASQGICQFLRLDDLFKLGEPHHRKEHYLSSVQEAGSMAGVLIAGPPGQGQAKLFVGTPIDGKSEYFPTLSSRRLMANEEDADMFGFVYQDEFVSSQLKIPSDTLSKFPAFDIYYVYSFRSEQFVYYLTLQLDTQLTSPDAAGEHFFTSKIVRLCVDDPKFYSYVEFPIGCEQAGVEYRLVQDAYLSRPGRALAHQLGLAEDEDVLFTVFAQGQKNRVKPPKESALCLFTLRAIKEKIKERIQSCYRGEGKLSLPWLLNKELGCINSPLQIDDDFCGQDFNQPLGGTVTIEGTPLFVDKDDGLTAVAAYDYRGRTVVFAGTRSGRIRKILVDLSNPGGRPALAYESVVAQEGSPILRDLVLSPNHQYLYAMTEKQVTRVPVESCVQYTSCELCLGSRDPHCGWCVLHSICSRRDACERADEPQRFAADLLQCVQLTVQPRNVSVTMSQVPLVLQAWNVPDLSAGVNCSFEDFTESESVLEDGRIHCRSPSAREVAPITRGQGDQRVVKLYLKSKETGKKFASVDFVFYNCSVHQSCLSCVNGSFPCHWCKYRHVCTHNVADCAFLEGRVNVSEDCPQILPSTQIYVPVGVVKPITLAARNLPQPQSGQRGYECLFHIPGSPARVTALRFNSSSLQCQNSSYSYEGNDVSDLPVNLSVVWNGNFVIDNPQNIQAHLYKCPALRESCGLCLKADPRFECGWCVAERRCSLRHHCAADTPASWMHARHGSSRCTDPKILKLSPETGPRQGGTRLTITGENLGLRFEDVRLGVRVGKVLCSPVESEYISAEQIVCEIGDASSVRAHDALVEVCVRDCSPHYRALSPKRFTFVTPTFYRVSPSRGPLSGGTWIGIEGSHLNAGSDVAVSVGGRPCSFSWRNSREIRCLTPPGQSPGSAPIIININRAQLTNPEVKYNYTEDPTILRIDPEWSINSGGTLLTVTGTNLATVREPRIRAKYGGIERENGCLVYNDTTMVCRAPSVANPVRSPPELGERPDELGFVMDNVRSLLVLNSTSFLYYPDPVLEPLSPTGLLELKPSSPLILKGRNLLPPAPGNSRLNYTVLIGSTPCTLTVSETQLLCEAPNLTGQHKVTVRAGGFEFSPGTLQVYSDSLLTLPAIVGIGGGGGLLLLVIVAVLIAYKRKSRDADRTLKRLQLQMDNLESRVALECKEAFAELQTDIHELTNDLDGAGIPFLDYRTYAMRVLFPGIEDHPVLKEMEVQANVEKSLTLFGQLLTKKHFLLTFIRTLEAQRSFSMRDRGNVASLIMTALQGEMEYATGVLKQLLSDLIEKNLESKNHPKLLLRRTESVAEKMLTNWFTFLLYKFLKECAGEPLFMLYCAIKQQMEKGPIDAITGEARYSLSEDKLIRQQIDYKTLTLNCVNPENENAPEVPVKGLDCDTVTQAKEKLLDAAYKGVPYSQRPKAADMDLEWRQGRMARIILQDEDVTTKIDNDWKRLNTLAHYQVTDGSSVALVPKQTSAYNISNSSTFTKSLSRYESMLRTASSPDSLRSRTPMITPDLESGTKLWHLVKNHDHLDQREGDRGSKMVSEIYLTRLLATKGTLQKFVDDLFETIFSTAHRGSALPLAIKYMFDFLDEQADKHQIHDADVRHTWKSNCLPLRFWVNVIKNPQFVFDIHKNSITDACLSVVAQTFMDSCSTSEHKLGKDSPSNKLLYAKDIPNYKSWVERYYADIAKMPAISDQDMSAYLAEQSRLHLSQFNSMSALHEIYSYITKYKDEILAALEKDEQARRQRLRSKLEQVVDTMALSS
UniProt P0DPB6, whole entry, looked up: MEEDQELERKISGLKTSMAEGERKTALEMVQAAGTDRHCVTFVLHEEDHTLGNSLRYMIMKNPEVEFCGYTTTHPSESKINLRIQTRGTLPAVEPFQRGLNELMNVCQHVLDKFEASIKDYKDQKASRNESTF
UniProt Q9NVS9: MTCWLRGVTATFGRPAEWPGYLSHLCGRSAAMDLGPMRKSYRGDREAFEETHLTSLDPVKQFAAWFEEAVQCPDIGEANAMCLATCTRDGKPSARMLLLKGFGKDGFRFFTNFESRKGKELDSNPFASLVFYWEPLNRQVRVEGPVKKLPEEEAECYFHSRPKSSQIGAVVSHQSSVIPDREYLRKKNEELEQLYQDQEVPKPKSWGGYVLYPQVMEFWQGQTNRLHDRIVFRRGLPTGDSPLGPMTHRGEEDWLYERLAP
UniProt Q6PFW1: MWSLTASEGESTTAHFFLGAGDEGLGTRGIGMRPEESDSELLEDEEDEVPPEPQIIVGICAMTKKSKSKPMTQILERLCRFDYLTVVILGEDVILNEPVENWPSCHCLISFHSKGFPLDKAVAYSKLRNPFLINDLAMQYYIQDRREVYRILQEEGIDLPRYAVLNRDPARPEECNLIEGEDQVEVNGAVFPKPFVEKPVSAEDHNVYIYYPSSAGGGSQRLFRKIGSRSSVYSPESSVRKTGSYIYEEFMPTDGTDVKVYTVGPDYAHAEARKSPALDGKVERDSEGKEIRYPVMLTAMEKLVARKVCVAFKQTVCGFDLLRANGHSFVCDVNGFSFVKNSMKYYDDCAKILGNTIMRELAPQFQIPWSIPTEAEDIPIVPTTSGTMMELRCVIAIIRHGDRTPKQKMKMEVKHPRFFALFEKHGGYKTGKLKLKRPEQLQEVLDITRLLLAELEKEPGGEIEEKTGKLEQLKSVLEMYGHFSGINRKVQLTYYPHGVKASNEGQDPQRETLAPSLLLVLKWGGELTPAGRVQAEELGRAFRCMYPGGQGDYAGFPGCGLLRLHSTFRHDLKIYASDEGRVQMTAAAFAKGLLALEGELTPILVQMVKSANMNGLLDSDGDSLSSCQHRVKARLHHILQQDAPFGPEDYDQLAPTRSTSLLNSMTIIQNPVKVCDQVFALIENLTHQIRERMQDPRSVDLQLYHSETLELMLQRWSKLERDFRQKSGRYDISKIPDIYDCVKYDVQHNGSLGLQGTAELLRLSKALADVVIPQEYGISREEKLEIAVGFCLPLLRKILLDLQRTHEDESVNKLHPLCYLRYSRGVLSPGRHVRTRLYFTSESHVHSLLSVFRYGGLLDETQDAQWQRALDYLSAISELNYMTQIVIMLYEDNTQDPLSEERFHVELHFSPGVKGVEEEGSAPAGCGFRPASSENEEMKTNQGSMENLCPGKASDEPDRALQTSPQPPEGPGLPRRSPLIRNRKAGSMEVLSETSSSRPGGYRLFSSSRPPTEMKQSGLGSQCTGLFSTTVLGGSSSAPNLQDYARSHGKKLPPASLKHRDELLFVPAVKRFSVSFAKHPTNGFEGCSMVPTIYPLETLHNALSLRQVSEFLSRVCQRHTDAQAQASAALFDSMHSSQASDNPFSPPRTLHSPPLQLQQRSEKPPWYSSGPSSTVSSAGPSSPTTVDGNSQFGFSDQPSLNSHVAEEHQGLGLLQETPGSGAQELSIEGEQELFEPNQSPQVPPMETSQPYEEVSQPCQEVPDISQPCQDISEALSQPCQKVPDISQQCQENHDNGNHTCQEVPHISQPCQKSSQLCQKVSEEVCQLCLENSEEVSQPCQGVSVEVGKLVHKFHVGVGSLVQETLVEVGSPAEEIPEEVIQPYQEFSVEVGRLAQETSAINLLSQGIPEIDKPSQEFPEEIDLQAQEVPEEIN
UniProt O75817: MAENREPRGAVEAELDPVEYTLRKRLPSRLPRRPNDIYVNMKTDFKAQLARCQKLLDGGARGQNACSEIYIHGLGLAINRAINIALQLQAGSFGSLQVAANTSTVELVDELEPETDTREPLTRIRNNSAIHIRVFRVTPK
UniProt Q15181: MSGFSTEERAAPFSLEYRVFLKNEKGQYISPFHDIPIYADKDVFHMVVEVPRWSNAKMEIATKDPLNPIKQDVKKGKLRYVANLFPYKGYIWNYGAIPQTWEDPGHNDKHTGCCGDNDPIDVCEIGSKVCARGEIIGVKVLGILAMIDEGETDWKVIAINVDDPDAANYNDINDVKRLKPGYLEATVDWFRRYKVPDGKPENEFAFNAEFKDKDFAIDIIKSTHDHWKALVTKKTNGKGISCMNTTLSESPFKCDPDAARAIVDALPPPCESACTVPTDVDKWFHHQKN
UniProt Q8TF01: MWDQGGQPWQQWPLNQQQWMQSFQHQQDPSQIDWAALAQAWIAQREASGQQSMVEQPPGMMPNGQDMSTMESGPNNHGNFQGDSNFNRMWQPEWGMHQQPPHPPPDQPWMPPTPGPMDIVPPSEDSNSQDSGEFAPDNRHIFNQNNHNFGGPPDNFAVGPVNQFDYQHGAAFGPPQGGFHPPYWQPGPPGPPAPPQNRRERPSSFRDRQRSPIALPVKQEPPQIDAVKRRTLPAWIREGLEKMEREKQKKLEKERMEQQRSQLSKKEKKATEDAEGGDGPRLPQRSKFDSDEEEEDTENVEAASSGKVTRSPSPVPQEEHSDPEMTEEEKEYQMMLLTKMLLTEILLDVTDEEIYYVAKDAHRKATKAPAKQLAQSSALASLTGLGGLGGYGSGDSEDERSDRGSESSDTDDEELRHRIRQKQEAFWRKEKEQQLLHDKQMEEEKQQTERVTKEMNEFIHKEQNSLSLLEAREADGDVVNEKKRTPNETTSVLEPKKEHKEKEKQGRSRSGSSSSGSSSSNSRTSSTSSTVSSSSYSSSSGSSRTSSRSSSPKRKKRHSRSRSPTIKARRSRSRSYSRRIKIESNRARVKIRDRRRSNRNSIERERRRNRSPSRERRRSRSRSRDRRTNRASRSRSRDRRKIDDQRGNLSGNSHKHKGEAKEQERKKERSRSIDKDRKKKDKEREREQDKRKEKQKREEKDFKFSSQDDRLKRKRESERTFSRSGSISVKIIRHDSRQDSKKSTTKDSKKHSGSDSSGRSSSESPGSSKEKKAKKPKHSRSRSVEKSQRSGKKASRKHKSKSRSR
UniProt Q15063: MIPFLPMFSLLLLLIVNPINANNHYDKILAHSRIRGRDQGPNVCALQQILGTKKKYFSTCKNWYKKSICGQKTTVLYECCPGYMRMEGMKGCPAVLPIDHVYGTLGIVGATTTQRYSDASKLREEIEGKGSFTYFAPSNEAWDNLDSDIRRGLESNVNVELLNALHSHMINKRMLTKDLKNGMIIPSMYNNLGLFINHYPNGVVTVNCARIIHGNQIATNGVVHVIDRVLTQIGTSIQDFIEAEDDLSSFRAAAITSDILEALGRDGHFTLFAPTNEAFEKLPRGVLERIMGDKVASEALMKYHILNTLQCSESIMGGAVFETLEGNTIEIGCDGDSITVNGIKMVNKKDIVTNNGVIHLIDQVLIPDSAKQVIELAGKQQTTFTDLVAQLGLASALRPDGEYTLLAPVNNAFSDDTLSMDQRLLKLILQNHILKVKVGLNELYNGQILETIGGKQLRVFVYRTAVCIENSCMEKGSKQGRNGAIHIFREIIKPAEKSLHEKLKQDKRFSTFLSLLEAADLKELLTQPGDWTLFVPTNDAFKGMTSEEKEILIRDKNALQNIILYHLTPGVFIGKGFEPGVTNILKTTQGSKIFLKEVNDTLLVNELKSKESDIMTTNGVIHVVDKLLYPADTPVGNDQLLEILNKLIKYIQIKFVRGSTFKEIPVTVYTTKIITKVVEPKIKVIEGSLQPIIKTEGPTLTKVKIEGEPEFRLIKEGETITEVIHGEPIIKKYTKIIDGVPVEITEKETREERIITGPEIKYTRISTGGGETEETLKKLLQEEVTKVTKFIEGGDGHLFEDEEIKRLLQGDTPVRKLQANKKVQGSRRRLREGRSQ
UniProt Q8TCS8: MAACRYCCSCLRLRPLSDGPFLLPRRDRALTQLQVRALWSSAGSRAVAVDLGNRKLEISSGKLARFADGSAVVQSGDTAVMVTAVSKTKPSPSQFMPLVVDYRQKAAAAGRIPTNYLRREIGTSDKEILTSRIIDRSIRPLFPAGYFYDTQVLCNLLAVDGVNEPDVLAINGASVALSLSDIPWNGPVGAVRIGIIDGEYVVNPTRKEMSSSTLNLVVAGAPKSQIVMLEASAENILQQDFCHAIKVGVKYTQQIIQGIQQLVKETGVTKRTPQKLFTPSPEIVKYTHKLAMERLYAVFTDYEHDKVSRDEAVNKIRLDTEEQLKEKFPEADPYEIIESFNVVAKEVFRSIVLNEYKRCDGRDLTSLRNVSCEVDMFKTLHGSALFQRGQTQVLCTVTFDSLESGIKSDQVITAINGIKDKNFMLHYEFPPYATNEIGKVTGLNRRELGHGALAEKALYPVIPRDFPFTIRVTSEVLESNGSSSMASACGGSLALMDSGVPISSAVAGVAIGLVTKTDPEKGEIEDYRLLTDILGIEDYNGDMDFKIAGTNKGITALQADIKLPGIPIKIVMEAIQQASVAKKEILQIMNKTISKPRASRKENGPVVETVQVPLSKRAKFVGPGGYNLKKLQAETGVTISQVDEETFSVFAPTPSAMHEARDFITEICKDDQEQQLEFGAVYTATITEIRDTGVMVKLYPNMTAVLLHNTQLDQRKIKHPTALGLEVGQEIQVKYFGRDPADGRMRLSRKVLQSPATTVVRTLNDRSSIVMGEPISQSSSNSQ

How the values were obtained:
Assay in all cases: log2 fold change, soluble protein after heating vs DMSO (PISA); higher = thermal stabilisation; K562 cells, 10 uM, 30 min; active = over 0.2 and 3.5 SD of the protein, either way, in both replicates (recomputed)
erlotinib = compound: C#Cc1cccc(Nc2ncnc3cc(OCCOC)c(OCCOC)cc23)c1 [erlotinib]
Summary of the method: (§1)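 Soluble protein was defined as the supernatant after 21,000xg for 90 min. It came from K562 cells at 2×10^6 cells/mL given 10 μM compound for 30 min, heated in aliquots for 3 min across 48°C-58°C, pooled, and extracted in PBS with 0.5% NP-40 at 4°C, and was quantified by TMTpro 16plex LC-MS/MS with equalised channel sums. Thermal stability against control samples, from duplicates, is reported as log2 fold change.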

[1] = compound: C/C(=N\NC(=O)C1=CC(=CC=C1)S(=O)(=O)N2CCOCC2)/C3=C(C=CC(=C3)Cl)O
Summary of the method: as §1

[2] = compound: C1=CC(=C(C=C1Cl)C2=NC3=NC=CN=C3C(=N2)NC4=CC=NC=C4)F
Summary of the method: as §1

[3] = compound: C1=CC(=CC=C1C2=NC3=C(N2)C=C(C=C3)C(=O)N)OC4=CC=C(C=C4)Cl
Summary of the method: as §1

[4] = compound: C1=CC2=C(C=CC(=C2)/C=C\3/C(=O)NC(=NCC4=CC=CS4)S3)N=C1
Summary of the method: as §1

[5] = compound: C1=CC2=NC=CN=C2C=C1/C=C/3\C(=O)NC(=O)S3
Summary of the method: as §1

[6] = compound: C1=CC=C(C=C1)C2=NC(=C(N2)C3=CC=NC=C3)C4=CC(=C(C=C4)Cl)O
Summary of the method: as §1

[7] = compound: C1=CC=C2C(=C1)C3=NNC4=CC=CC(=C43)C2=O
Summary of the method: as §1

[8] = compound: C1CCN(C1)C(=O)NC2=CC=CC(=C2)NC3=NC=C(C(=N3)NCCC4=CN=CN4)Br
Summary of the method: as §1

[9] = compound: C1CN(CCC1(CC2=CC=C(C=C2)Cl)N)C3=NC=NC4=C3C=CN4
Summary of the method: as §1

IRAK-1-4 Inhibitor I = compound: C1COCCN1CCN2C3=CC=CC=C3N=C2NC(=O)C4=CC(=CC=C4)[N+](=O)[O-] [IRAK-1-4 Inhibitor I]
Summary of the method: as §1

ibrutinib = compound: C=CC(=O)N1CCC[C@@H](n2nc(-c3ccc(Oc4ccccc4)cc3)c3c(N)ncnc32)C1 [ibrutinib]
Summary of the method: as §1

[10] = compound: CC(=O)c1cnc2ccc(-c3cc(Cl)c(O)c(Cl)c3)nc2c1N[C@H]1CC[C@H](CN(C)C)CC1
Summary of the method: as §1

ralimetinib = compound: CC(C)(C)Cn1c(N)nc2ccc(-c3[nH]c(C(C)(C)C)nc3-c3ccc(F)cc3)nc21 [ralimetinib]
Summary of the method: as §1

[11] = compound: CC(C)(O)CC(=O)NCCn1ccc2ncnc(Nc3ccc(Oc4cccc(C(F)(F)F)c4)c(Cl)c3)c21
Summary of the method: as §1

[12] = compound: CC(C)C1=C2N=C(C=C(N2N=C1)NCC3=CC=CC=C3)NCCCCCCN
Summary of the method: as §1

[13] = compound: CC(C)C[C@@H](C=O)NC(=O)[C@H](CC(C)C)NC(=O)[C@H](CC(C)C)NC(=O)OCc1ccccc1
Summary of the method: as §1

pinometostat = compound: CC(C)N(C[C@H]1O[C@@H](n2cnc3c(N)ncnc32)[C@H](O)[C@@H]1O)[C@H]1C[C@@H](CCc2nc3cc(C(C)(C)C)ccc3[nH]2)C1 [pinometostat]
Summary of the method: as §1

[14] = compound: CC1=C(C(CC(=O)N1)C2=CC=C(C=C2)C(F)(F)F)C(=O)NC3=C(C=C4C(=C3)C=NN4)F
Summary of the method: as §1

[15] = compound: CC1=C(C2=C(C=C1)C(=O)C3=CC=CC=C3N2CCCN)C
Summary of the method: as §1

Measured: log2 fold change

PLXNA1 (UniProt Q9UIW2)
inactive: erlotinib -0.025 | [1] 0.034 | [2] 0.055 | [3] 0.011 | [4] 0.014 | [5] -0.01 | [6] -0.013 | [7] -0.026 | [8] -0.013 | [9] 0.053 | IRAK-1-4 Inhibitor I 0.004 | ibrutinib 0.005 | [10] -0.085 | ralimetinib -0.028 | [11] -0.015 | [12] 0.099 | [13] 0.014 | pinometostat -0.015 | [14] -0.055 | [15] 0.051

PLOD1 isoform 2 (UniProt Q02809)
inactive: erlotinib -0.072 | [1] -0.045 | [2] -0.126 | [3] 0.003 | [4] -0.002 | [5] -0.029 | [6] -0.062 | [7] 0.019 | [8] -0.035 | [9] -0.152 | IRAK-1-4 Inhibitor I -0.112 | ibrutinib -0.041 | [10] 0.021 | ralimetinib 0.025 | [11] 0.035 | [12] -0.016 | [13] 0.025 | pinometostat 0.08 | [14] 0.024 | [15] -0.04

PNKD isoform 2 (UniProt Q8N490)
inactive: erlotinib 0.047 | [1] 0.001 | [2] -0.015 | [3] 0.027 | [4] -0.045 | [5] -0.001 | [6] 0.014 | [7] 0.008 | [8] -0.011 | [9] -0.035 | IRAK-1-4 Inhibitor I 0.055 | ibrutinib 0.037 | [10] -0.045 | ralimetinib -0.078 | [11] -0.072 | [12] -0.073 | [13] -0.011 | pinometostat 0.109 | [14] 0.049 | [15] 0.102

POLR1D (UniProt P0DPB6)
inactive: erlotinib 0.05 | [1] 0.014 | [2] 0.077 | [3] -0.035 | [4] 0.015 | [5] -0.056 | [6] 0.065 | [7] -0.128 | [8] 0.043 | [9] -0.037 | IRAK-1-4 Inhibitor I -0.065 | ibrutinib -0.021 | [10] 0.089 | ralimetinib 0.052 | [11] -0.148 | [12] -0.109 | [13] 0.146 | pinometostat 0.058 | [14] -0.017 | [15] 0.033

POLR3C (UniProt Q9BUI4)
inactive: erlotinib -0.002 | [1] 0.008 | [2] -0.002 | [3] 0.005 | [4] 0.036 | [5] 0.021 | [6] -0.028 | [7] -0.03 | [8] -0.089 | [9] 0.04 | IRAK-1-4 Inhibitor I 0.045 | ibrutinib -0.023 | [10] -0.026 | ralimetinib -0.031 | [11] 0.02 | [12] -0.016 | [13] 0.017 | pinometostat -0.044 | [14] 0.004 | [15] 0.075

PNPO (UniProt Q9NVS9)
inactive: erlotinib -0.04 | [1] 0.023 | [2] -0.002 | [3] 0.077 | [4] 0.049 | [5] -0.015 | [6] 0.123 | [7] -0.014 | [8] -0.01 | [9] 0.002 | IRAK-1-4 Inhibitor I 0.031 | ibrutinib 0 | [10] -0.086 | ralimetinib 0.062 | [11] -0.012 | [12] 0.072 | [13] -0.012 | pinometostat -0.055 | [14] 0.002 | [15] 0.037

PPIP5K1 (UniProt Q6PFW1)
inactive: erlotinib -0.054 | [1] 0.092 | [2] 0.022 | [3] 0.034 | [4] 0.003 | [5] -0.023 | [6] -0.021 | [7] -0.008 | [8] -0.034 | [9] -0.03 | IRAK-1-4 Inhibitor I 0.054 | ibrutinib 0.013 | [10] 0.006 | ralimetinib -0.003 | [11] -0.09 | [12] 0.002 | [13] -0.008 | pinometostat -0.016 | [14] -0.028 | [15] -0.04

PPCS (UniProt Q9HAB8)
inactive: erlotinib 0.004 | [1] 0.048 | [2] 0.015 | [3] -0.015 | [4] 0.02 | [5] -0.01 | [6] 0.005 | [7] -0.006 | [8] -0.03 | [9] 0.052 | IRAK-1-4 Inhibitor I 0.029 | ibrutinib -0.007 | [10] -0.034 | ralimetinib -0.048 | [11] -0.058 | [12] 0.036 | [13] -0.021 | pinometostat -0.019 | [14] -0.031 | [15] 0.065

POP7 (UniProt O75817)
inactive: erlotinib 0.167 | [1] -0.02 | [2] -0.153 | [3] -0.045 | [4] 0.021 | [5] -0.073 | [6] -0.015 | [7] -0.043 | [8] -0.05 | [9] -0.025 | IRAK-1-4 Inhibitor I -0.008 | ibrutinib -0.046 | [10] -0.009 | ralimetinib 0.039 | [11] -0.001 | [12] 0.109 | [13] 0.032 | pinometostat 0.013 | [14] 0.081 | [15] -0.213

Reprinted at random: 2 records from the list
PNPO (UniProt Q9NVS9)
inactive: erlotinib -0.04 | [1] 0.023 | [2] -0.002 | [3] 0.077 | [4] 0.049 | [5] -0.015 | [6] 0.123 | [7] -0.014 | [8] -0.01 | [9] 0.002 | IRAK-1-4 Inhibitor I 0.031 | ibrutinib 0 | [10] -0.086 | ralimetinib 0.062 | [11] -0.012 | [12] 0.072 | [13] -0.012 | pinometostat -0.055 | [14] 0.002 | [15] 0.037

POLR3C (UniProt Q9BUI4)
inactive: erlotinib -0.002 | [1] 0.008 | [2] -0.002 | [3] 0.005 | [4] 0.036 | [5] 0.021 | [6] -0.028 | [7] -0.03 | [8] -0.089 | [9] 0.04 | IRAK-1-4 Inhibitor I 0.045 | ibrutinib -0.023 | [10] -0.026 | ralimetinib -0.031 | [11] 0.02 | [12] -0.016 | [13] 0.017 | pinometostat -0.044 | [14] 0.004 | [15] 0.075

Later entries.

PLRG1 (UniProt O43660)
inactive: erlotinib -0.02 | [1] -0.029 | [2] -0.056 | [3] 0.036 | [4] -0.023 | [5] 0.046 | [6] -0.003 | [7] -0.009 | [8] 0.024 | [9] 0.021 | IRAK-1-4 Inhibitor I 0 | ibrutinib -0.028 | [10] 0.019 | ralimetinib -0.059 | [11] 0.152 | [12] 0.123 | [13] 0.016 | pinometostat 0.015 | [14] 0.101 | [15] 0.095

PPA1 (UniProt Q15181)
inactive: erlotinib 0.039 | [1] 0.039 | [2] 0.016 | [3] 0 | [4] 0.039 | [5] -0.054 | [6] -0.016 | [7] 0.032 | [8] 0.015 | [9] -0.031 | IRAK-1-4 Inhibitor I 0.028 | ibrutinib -0.034 | [10] -0.008 | ralimetinib -0.048 | [11] -0.033 | [12] 0.035 | [13] -0.006 | pinometostat -0.033 | [14] -0.044 | [15] -0.009

PNISR (UniProt Q8TF01)
inactive: erlotinib -0.012 | [1] 0.008 | [2] 0.001 | [3] 0.012 | [4] -0.059 | [5] 0.028 | [6] 0.028 | [7] 0 | [8] 0.02 | [9] 0.027 | IRAK-1-4 Inhibitor I 0.007 | ibrutinib 0.006 | [10] -0.038 | ralimetinib 0.032 | [11] 0.008 | [12] 0.025 | [13] -0.022 | pinometostat -0.035 | [14] 0.015 | [15] -0.116

POLDIP3 (UniProt Q9BY77)
inactive: erlotinib 0.024 | [1] -0.063 | [2] 0.007 | [3] -0.007 | [4] -0.097 | [5] 0.015 | [6] -0.108 | [7] 0.012 | [8] 0.02 | [9] 0.08 | IRAK-1-4 Inhibitor I -0.153 | ibrutinib -0.007 | [10] 0.117 | ralimetinib 0.008 | [11] 0.038 | [12] 0.07 | [13] 0.074 | pinometostat 0.045 | [14] -0.03 | [15] 0.065

POLR3E (UniProt Q9NVU0)
inactive: erlotinib 0.063 | [1] 0.108 | [2] -0.136 | [3] 0.043 | [4] 0.037 | [5] 0.07 | [6] -0.053 | [7] 0.021 | [8] -0.124 | [9] -0.186 | IRAK-1-4 Inhibitor I -0.131 | ibrutinib -0.008 | [10] 0 | ralimetinib 0.051 | [11] -0.054 | [12] -0.258 | [13] 0.086 | pinometostat 0.169 | [14] -0.049 | [15] 0.27

POSTN (UniProt Q15063)
inactive: erlotinib -0.014 | [1] -0.101 | [2] 0 | [3] 0.053 | [4] 0.128 | [5] -0.023 | [6] -0.007 | [7] -0.028 | [8] -0.071 | [9] 0.05 | IRAK-1-4 Inhibitor I 0.044 | ibrutinib 0.101 | [10] 0.056 | ralimetinib -0.083 | [11] 0.148 | [12] 0.021 | [13] -0.026 | pinometostat -0.131 | [14] 0.017 | [15] -0.16

PNPT1 (UniProt Q8TCS8)
inactive: erlotinib 0.044 | [1] 0.097 | [2] 0.047 | [3] -0.046 | [4] 0.085 | [5] 0.002 | [6] 0.01 | [7] 0.021 | [8] -0.039 | [9] 0.011 | IRAK-1-4 Inhibitor I -0.032 | ibrutinib -0.02 | [10] -0.088 | ralimetinib -0.081 | [11] -0.144 | [12] 0.041 | [13] -0.034 | pinometostat -0.035 | [14] -0.014 | [15] 0.059
